In patent US7700717B2, “Photo-active backbone cyclized somatostatin analogs for photodynamic therapy and imaging” (DeveloGen Israel Ltd., priority 2002, dated 2010):
Not every detail of the peptide structures is certain; ends, links or a residue may be inferred.

By UniProt entry, the sequences of proteins in these tests, tags left out. Where a name states a change or a piece, a line headed by the entry shows the natural chain unless it says otherwise.
UniProt P30874: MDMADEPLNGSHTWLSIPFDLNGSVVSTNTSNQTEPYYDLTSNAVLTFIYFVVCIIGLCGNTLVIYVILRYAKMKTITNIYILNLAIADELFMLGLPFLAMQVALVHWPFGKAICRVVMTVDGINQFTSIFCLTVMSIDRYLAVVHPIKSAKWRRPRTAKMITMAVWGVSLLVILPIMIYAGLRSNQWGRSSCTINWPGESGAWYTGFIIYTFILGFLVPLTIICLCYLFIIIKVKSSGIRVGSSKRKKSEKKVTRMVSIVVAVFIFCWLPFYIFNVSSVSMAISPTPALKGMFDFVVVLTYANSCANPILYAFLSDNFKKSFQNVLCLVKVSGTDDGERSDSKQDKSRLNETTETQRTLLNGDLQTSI

Target: T1, hSST-R2 (Homo sapiens, UniProt P30874)
T1 construct: expressed in transfected cells
Assay: Inhibition of 125I-Tyr11-SRIF (SRIF-14) binding to membranes of CHO cells expressing cloned human SST-R2
Protocol: The SST analogs were tested for their potency in inhibition of the binding of ^125I-Tyr^11-SRIF (based on the method described by Raynor et. al., Molecular Pharmacology 43: 838, 1993) to membrane preparations expressing transmembrane SST receptors (SST-R1, 2, 3, 4 or 5). The receptor preparations used for these tests were either from the cloned human receptors selectively and stably expressed in Chinese Hamster Ovary (CHO) cells or from cell lines naturally expressing the SST-Rs. Typically, cell membranes were homogenized in Tris buffer in the presence of protease inhibitors and incubated for 30-40 minutes with ^125I-Tyr^11-SRIF with different concentrations of the tested sample. The binding reactions were filtered, the filters were washed and the bound radioactivity was counted in […] after addition of scintillation solution. Non specific binding was defined as the radioactivity remaining bound in the presence of 1 μM unlabeled SRIF-14.
The receptor membrane preparations used for these tests were from the cloned human receptors selectively and stably expressed in CHO cells and the radiolabelled analog used was (3-[^125]tyrosyl^11)SRIF-14. Table 2 above describes the results of the binding assays of selected analogs to the human cloned SST-R2.
The compounds were tested at a concentration of 10 nM, for SRIF-14 displacement on hSST-R2 expressed cells.

[1] = Table 2, affinity for hSST-R2, cloned human receptor in CHO cells
[2] = Table 4, YS-PDT-1 plate, SRIF-14 displacement on hSST-R2 expressing CHO cells

C[C@@H](O)[C@@H]1NC(=O)[C@H](CCCCN)NC(=O)[C@@H](Cc2c[nH]c3ccccc23)NC(=O)[C@H](Cc2c[nH]c3ccccc23)NC(=O)[C@H](Cc2ccccc2)NC(=O)CN(C(=O)[C@@H](Cc2ccccc2)NC(=O)CCNC(=S)Nc2ccc3c(c2)C(=O)OC32c3ccc(O)cc3Oc3cc(O)ccc32)CCSSCCN(CC(N)=O)C(=O)[C@H](Cc2ccccc2)NC1=O [Compound 62, 5-(aminothionyl)fluorescein-βAla-DPhe-GlyS2*-Phe-Trp-DTrp-Lys-Thr-Phe-GlyS2*-NH2]
IC50 [1]: 3 nM | IC50 [2]: 3 nM

C[C@@H](O)[C@@H]1NC(=O)[C@H](CCCCN)NC(=O)[C@@H](Cc2c[nH]c3ccccc23)NC(=O)[C@H](Cc2c[nH]c3ccccc23)NC(=O)[C@H](Cc2ccccc2)NC(=O)CN(C(=O)[C@@H](Cc2ccccc2)NC(=O)CCCCNC(=S)Nc2ccc3c(c2)C(=O)OC32c3ccc(O)cc3Oc3cc(O)ccc32)CCSSCCN(CC(N)=O)C(=O)[C@H](Cc2ccccc2)NC1=O [Compound 70, 5-(aminothionyl)fluorescein-aminopentanoyl-DPhe-GlyS2*-Phe-Trp-DTrp-Lys-Thr-Phe-GlyS2*-NH2]
IC50 [1]: 2.9 nM | IC50 [2]: 2.9 nM

C[C@@H](O)[C@@H]1NC(=O)[C@H](CCCCN)NC(=O)[C@@H](Cc2c[nH]c3ccccc23)NC(=O)[C@H](Cc2c[nH]c3ccccc23)NC(=O)[C@H](Cc2ccccc2)NC(=O)CN(C(=O)CCCNC(=O)c2ccc3c(c2)C(=O)OC32c3ccc(O)cc3Oc3cc(O)ccc32)CCSSCCN(CC(N)=O)C(=O)[C@H](Cc2ccccc2)NC1=O [Compound 48, 5- and 6-carboxyfluorescein-GABA-GlyS2*-Phe-Trp-DTrp-Lys-Thr-Phe-GlyS2*-NH2]
IC50 [1]: 5.4 nM | IC50 [2]: 5.4 nM

C[C@@H](O)[C@@H]1NC(=O)[C@H](CCCCN)NC(=O)[C@@H](Cc2c[nH]c3ccccc23)NC(=O)[C@H](Cc2c[nH]c3ccccc23)NC(=O)[C@H](Cc2ccccc2)NC(=O)CN(C(=O)[C@@H](Cc2ccccc2)NC(=O)CCNC(=O)c2ccc3c(c2)C(=O)OC32c3ccc(O)cc3Oc3cc(O)ccc32)CCSSCCN(CC(N)=O)C(=O)[C@H](Cc2ccccc2)NC1=O [Compound 64, 5- and 6-carboxyfluorescein-βAla-DPhe-GlyS2*-Phe-Trp-DTrp-Lys-Thr-Phe-GlyS2*-NH2]
IC50 [1]: 3.9 nM | IC50 [2]: 3.9 nM
